No constants are given. Whether binding was seen depends on the method and setting. In cells and extracts the contact can be indirect. Some entries that bind do so weakly or less than the wild type. Sequences can lack the tags named with a protein. Each block holds one molecule with its values, some of them ahead of it.
Columns and labels:
[1] = molecular target: T1, Myc-tagged ZASC1 (UniProt Q9UID6); test: co-IP; HEK293 cells transfected with Myc-ZASC1 and eGFP, untreated or treated with 10 µM DRB or 1 µg/ml actinomycin D for one h; lysate fractionated on a 5% to 45% glycerol gradient; fractions pooled in pairs and immunoprecipitated with non-specific mouse IgG or mouse anti-Myc IgG; western blot
T1 sequence: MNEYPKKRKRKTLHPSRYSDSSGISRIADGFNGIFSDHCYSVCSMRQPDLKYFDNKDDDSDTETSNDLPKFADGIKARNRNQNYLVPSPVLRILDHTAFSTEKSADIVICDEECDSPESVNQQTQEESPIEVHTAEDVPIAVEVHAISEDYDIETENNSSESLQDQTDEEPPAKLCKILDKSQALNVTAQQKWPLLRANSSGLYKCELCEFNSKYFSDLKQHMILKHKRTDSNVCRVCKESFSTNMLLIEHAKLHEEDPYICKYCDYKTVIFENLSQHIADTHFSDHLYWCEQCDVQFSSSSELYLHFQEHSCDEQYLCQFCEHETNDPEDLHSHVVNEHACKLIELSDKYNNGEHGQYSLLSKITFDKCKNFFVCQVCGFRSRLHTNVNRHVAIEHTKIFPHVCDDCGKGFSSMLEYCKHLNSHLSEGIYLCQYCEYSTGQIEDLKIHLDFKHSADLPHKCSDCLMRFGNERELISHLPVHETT

Sequences of proteins named here, by UniProt entry; tags and fusion partners are left off.
UniProt P50750: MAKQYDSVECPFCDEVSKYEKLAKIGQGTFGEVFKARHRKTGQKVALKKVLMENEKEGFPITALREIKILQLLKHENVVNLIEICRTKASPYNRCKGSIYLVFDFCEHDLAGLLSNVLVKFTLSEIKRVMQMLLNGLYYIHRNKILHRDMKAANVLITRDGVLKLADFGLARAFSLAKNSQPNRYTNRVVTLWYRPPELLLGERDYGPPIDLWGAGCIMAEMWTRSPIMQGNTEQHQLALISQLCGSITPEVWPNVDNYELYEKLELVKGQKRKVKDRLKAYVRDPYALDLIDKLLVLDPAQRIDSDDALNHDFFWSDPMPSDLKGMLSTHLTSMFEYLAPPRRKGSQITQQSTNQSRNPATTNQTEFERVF

[2] = molecular target: Myc-tagged CDK9 (UniProt P50750); test: co-IP

binding [1]: binds
Molecule: Endogenous CDK9 (from UniProt P50750 1-372)

binding [2]: binds
B1: FLAG-tagged ZASC1 (protein, UniProt Q9UID6 1-485)
chain: T1 sequence

Source: paper PMC3812036
